Assay results published in the supplement of paper PMC3334620.
Over roughly 33,000 sequences, “E-score (-0.5 to 0.5)” has its median near -0.0059; the highest 2% begin near 0.26. Some of the results follow.

target: T1, Cin5 (UniProt P40917); experiment: PBM E-score (8-mer binding enrichment) (E-score (-0.5 to 0.5)); higher = stronger / more preferred TF binding; conditions: protein concentration: 100 nM; construct: GST-full length
T1 sequence: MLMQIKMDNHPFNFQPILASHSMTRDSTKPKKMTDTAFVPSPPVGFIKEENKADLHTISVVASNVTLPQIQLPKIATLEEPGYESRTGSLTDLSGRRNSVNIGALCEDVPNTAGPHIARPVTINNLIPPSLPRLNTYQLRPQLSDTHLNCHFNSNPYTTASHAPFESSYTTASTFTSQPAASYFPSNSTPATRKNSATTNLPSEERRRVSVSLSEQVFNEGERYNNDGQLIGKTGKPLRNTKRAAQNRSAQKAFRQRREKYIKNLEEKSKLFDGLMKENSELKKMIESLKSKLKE
Method in brief: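 Masliner-normalised scans of fluorescent anti-GST signal were the basis for scoring. That signal came from GST-tagged yeast transcription factors applied at about 100-200 nM to double-stranded universal all-10-mer Agilent arrays on fresh or once-stripped slides. Each ungapped eight-base word, pooled with its reverse complement, received an E-score from the Universal PBM Analysis Suite.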

Sequence | PBM E-score
GTAGCAGA | 0.0836
ACCCCGCG | -0.0435
TAGAACCA | -0.0523
AAGGAAGC | -0.145
GCAAGATA | 0.117
CCTGTGGA | -0.239
GTGCTGGA | -0.175
GAGGTTTA | 0.00517
GTAATAAC | 0.0911
CTAGATGA | 0.00071
CAGGCACA | -0.284
AGAGGTGC | -0.109
ACGCTAAC | 0.0232
GCGACCGC | -0.142
ATGCCGGC | -0.0207
CTGCTCAC | -0.199
CTGTCAAC | -0.00778
GAACTGTA | 0.155
GGCATCAA | -0.216
CAAATAGG | -0.0717
CCATCACG | -0.0302
ACACGACC | -0.109
GTAGTGCA | 0.126
AGACTTGG | -0.221
CCGGCCTC | -0.227

3 entries from above, as tab-separated lines.
Sequence	PBM E-score
GTAATAAC	0.0911
CTAGATGA	0.00071
CTGTCAAC	-0.00778

Further entries:

Sequence | PBM E-score
CATCTCGA | 0.104
GCCGGTAA | 0.112
ATAGTTCC | 0.19
AACTAACT | 0.0131
CAAATTCG | 0.153
GCAGAACC | -0.0607
TCAAAAGA | 0.07
ACCTGCGA | -0.141
AATTTGTA | 0.247
TAGCTCGA | 0.0043
CCTTCTGC | -0.126
ACCAACGC | -0.0288
AATTCGCG | 0.0954
AGGATAAA | 0.177
AGGAAACA | 0.0393
ATTGTTAG | 0.109
GTATTCTA | 0.194
CTGATGGC | -0.0283
AATCAGCA | 0.176
ACAACATA | 0.268
GACGACCA | -0.107
AACGCTCA | -0.116
CCACTTAG | -0.0416
CCTGCCCC | -0.239
CTATTATC | 0.108

Sequence | PBM E-score
CTCTAAGA | -0.0756
GACTCAAA | -0.171
CAATCTGC | -0.0434
GATGAGTA | 0.152
CAGCGTCC | -0.13
CAAACACC | -0.122
ATTCCGGC | 0.0228
GTGGCTGA | 0.0341
GTAGGGAA | 0.00147
GTCTTACA | -0.0251
ACAGCTTC | -0.053
CAAAACCA | 0.25
GAATCTTA | 0.18
ATAAGTGC | -0.0573
AAAACCTG | -0.101
GATTCACA | 0.0537
GTCTCAAA | -0.0688
CCCTCGTC | -0.121
CGTCCTGA | -0.113
CTCAAAAC | 0.0347
CGGGATGA | 0.0495
CAGTTTAG | -0.152
CAAACCTC | -0.00399
GGATGTAC | 0.0601
AAGATTCT | -0.106

Sequence | PBM E-score
GTTCACGA | -0.00376
CTCTACAG | -0.0861
CAGTTCTA | -0.127
ATGGCTAA | -0.00592
ATAGCTAA | 0.0506
AAACGCGG | 0.122
CGTTAGTC | -0.00681
ATCTCCCG | -0.101
ACTAGGAA | -0.0988
ATCGAATC | 0.0936
GCAAATGC | -0.074
CCGCCGAC | -0.119
AATTAGGT | 0.0972
CGGACGTA | -0.0782
AGCGACCA | 0.0223
CTCTGAAA | 0.0783
ATTAAGCC | 0.0793
CATCTATA | 0.184
CCGCCCGG | -0.0176
GAGCAGTA | -0.00544
GCCTCAGC | -0.143
AATTATGC | 0.171
CTCGTGTC | -0.147
CTACTTTA | 0.0575
TGAGTCAA | -0.0173

Sequence | PBM E-score
AGCCAGCA | -0.141
AACGGTAC | 0.199
AATGATCA | 0.05
GCATTCGC | -0.157
ATTGGCTC | 0.0785
CGAAGGTC | -0.192
ATCGGGGG | -0.314
ACGCCCTC | -0.0682
AGCGAAAT | 0.0278
GCGAAAGA | 0.055
GAATACAA | 0.205
GACAAAAA | 0.0976
CGTTGCGC | -0.0509
CATTAACC | 0.123
ATCAGTCG | 0.142
ATGAATTA | 0.097
CCTACGTC | -0.116
ACTGTTCT | 0.181
AAAACCAA | -0.0754
ATTCACTC | 0.0516
CATTCCCG | 0.128
GGGGAGTA | -0.0349
ATACTTGG | -0.0222
AATGGGTG | 0.182
ATCTATGG | -0.121

A few values from the results shown:
Entry of AACGGTAC under PBM E-score: 0.199
Entry of ATGAATTA under PBM E-score: 0.097
Entry of AATGGGTG under PBM E-score: 0.182

The list continues.

Sequence | PBM E-score
ACGAGACA | 0.00599
GTGTCAAA | -0.00832
AAAGGCCG | -0.193
CCATTGGG | -0.215
GGCAGTAC | -0.0716
ATTTCAAG | 0.0882
GCCGGTAC | -0.179
AAGAGAGA | -0.113
GCGCATCC | -0.0649
GTATACAA | 0.166
AAAAGCTT | -0.127
CAGTACAA | 0.0288
ACATGTCC | 0.0675
AATCTCAC | -0.00066
GTACGGGA | -0.145
CAGTGATA | 0.0486
AATTTAAG | 0.155
AATTCCAG | 0.234
CATCCTCA | -0.0377
AATTGTAG | 0.109
CCGCGAAG | -0.0304
AAAAGCGG | -0.114
CGACGCCA | -0.0698
AGTGTCCA | -0.00164
AAGACAGG | -0.0302

Sequence | PBM E-score
ACCTCGAT | 0.0677
GAGAGTCC | -0.18
CTTTATGA | -0.0656
AAATAAAG | 0.0387
ATCACGAA | 0.114
TCACTAAA | 0.13
AGCACAGG | 0.0522
CGACTAAA | -0.0518
AGAACTGC | -0.168
AGATCACG | 0.0854
GACAGTTA | 0.0897
TCCGCGAA | 0.0615
CCGGTCCA | -0.314
AGCTTAGG | 0.109
CAGGTCCG | -0.132
ACCTAGAC | -0.126
AGTAGGTC | -0.131
CCAGGTGC | -0.145
AGGTCCCA | -0.0786
AGTAGGAA | -0.115
CGGGGGAA | -0.147
CTCACCTA | -0.0108
